Data as given in PubChem BioAssay AID1259314 (Drosophila RNAi Screening Center, 2017).
The deposit covers about 3,100 reagents; shown is an unselected part. Of all reagents, 289 (9.3%) were called active. 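Active includes both higher and lower ATP than plate average; check the z-score sign for direction.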 A plus sign joins genes that one reagent is predicted to hit. The record does not give: the amount of reagent.

Aim: 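Modifiers of manganese chloride toxicity in fly cells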 (primary screen)
System: Drosophila S2R+ cells
Reagents: long dsRNA against Drosophila genes
Timing: 5 days (4 days knock-down, then 1 day metal exposure)
Challenge: manganese chloride added to 15 mM for 24 hours
Measured: 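Luciferase ATP signal used as a proxy for viable cell number, reported as one averaged z-score per dsRNA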
Reading the numbers: mean ATP z-score: higher = more ATP than the plate average, more viable cells under manganese
Active means: 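a mean ATP z-score past 1.5 in either direction is called active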
Calls: active = strong ATP change, up or down; inactive = no strong ATP change

mean ATP z-score, by gene knocked down and reagent
Tsp42Ec (Tetraspanin 42Ec): DRSC06192 -0.258 inactive; DRSC26768 0.0195 inactive
CG12730: DRSC17885 -0.16 inactive; DRSC39454 0.456 inactive
Or33b (Odorant receptor 33b): DRSC03387 -0.582 inactive
Vha100-1 (Vacuolar H[+] ATPase 100kD subunit 1): DRSC14148 0.502 inactive; DRSC39862 1.28 inactive
CCAP-R (Crustacean cardioactive peptide receptor): DRSC14891 -0.41 inactive; DRSC15967 0.239 inactive; DRSC29494 -0.17 inactive
NijB (Ninjurin B): DRSC09850 -0.304 inactive; DRSC39587 -0.021 inactive
trpl (transient receptor potential-like): DRSC06728 -0.549 inactive; DRSC25485 0.903 inactive
CG18635: DRSC06780 -0.108 inactive; DRSC25971 -0.0926 inactive
140up (upstream of RpII140): DRSC12634 -1.28 inactive; DRSC28711 -1.73 active
foi (fear-of-intimacy): DRSC10719 -0.984 inactive; DRSC29596 -1.44 inactive
Sys1 + Dhod: DRSC39530 0.533 inactive
CG3339: DRSC13821 -0.875 inactive; DRSC15479 -0.481 inactive
CG2519: DRSC12312 0.411 inactive

Sorted by “mean ATP z-score” (high to low): 4 of the entries above.
gene knocked down	DRSC id	mean ATP z-score	Call
trpl (transient receptor potential-like)	DRSC25485	0.903	inactive
CG18635	DRSC25971	-0.0926	inactive
CG18635	DRSC06780	-0.108	inactive
140up (upstream of RpII140)	DRSC12634	-1.28	inactive

The results go on:
mean ATP z-score, by gene knocked down and reagent
CG5021: DRSC10469 0.287 inactive; DRSC39741 -0.379 inactive
CG9702: DRSC16540 2.57 active
Fie (Fire exit): DRSC08158 2.99 active; DRSC39856 -0.857 inactive
htl (heartless): DRSC16968 0.523 inactive; DRSC36668 -0.12 inactive
mAChR-C (muscarinic Acetylcholine Receptor, C-type): DRSC17890 0.0118 inactive; DRSC27441 0.626 inactive
CG32206: DRSC10095 -1.4 inactive; DRSC10096 0.462 inactive
CG14234: DRSC19317 -0.0795 inactive; DRSC19589 0.211 inactive
ppk28 (pickpocket 28): DRSC19919 1.19 inactive; DRSC39604 -0.846 inactive
Osi19 (Osiris 19): DRSC12569 0.307 inactive
Ugalt (UDP-galactose transporter): DRSC18467 -0.121 inactive
Smvt (Sodium-dependent multivitamin transporter): DRSC15426 0.122 inactive; DRSC39637 1.55 active
pHCl-1 (pH-sensitive chloride channel 1): DRSC09401 0.519 inactive; DRSC09991 -0.241 inactive; DRSC10589 -0.366 inactive
